According to publication PMC4990744:
These are yes or no findings as the source states them, for the method shown. In cells and extracts the contact can be indirect. Some results given as binding are weak or reduced against the parent protein; the word gives no strength.

By UniProt entry, the sequences of proteins in these tests, tags left out.
UniProt O88275: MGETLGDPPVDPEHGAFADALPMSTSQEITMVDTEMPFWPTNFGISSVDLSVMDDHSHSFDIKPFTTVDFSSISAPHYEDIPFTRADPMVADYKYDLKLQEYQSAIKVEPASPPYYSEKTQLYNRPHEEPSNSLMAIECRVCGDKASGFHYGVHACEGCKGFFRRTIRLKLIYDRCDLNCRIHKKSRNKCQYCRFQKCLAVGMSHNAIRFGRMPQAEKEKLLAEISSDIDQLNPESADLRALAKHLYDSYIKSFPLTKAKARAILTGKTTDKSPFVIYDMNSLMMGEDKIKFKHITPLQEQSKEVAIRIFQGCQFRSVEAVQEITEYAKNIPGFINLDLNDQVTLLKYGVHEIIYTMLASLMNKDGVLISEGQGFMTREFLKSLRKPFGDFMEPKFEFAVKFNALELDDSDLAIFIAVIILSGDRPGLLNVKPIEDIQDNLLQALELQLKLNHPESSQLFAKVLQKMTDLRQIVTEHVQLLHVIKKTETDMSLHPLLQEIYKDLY
UniProt Q7TQN4: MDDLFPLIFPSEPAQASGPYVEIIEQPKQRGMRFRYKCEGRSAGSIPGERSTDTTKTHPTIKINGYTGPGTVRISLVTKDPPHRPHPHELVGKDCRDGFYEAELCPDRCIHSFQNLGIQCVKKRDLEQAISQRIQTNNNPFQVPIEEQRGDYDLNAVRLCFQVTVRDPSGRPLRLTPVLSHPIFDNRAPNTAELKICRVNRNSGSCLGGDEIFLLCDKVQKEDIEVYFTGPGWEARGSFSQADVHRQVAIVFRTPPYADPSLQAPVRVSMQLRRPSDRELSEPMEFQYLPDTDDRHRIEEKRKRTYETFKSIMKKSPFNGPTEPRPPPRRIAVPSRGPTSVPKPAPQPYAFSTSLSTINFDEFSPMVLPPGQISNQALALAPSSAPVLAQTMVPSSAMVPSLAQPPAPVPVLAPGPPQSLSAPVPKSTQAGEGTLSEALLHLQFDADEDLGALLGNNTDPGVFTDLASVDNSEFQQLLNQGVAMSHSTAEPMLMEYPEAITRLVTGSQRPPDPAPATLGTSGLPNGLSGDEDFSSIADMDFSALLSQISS

Target: peroxisome proliferator-activated receptor gamma (rat (endogenous in primary hippocampal neuronal/glial cultures)) (UniProt O88275)
Assay: co-IP; PPARγ antibody immobilised on antibody coupling gel (Pierce Co-IP kit); nuclear extracts (300 μg protein) of primary mixed neuronal/glial cultures incubated 2 h; blot with NF-κB or PPARγ antibody; cells stimulated with Aβ1-42 25 μM, pre-treated with curcumin 10 μM, with or without GW9662 1 μM or PPARγ siRNA

- binding: binds
Substance: NF-κB p65 subunit (from UniProt Q7TQN4 1-550)
